{"sequences": {"note": "Amino acid sequences for entries named in this document (tags omitted).", "UniProt P12004": "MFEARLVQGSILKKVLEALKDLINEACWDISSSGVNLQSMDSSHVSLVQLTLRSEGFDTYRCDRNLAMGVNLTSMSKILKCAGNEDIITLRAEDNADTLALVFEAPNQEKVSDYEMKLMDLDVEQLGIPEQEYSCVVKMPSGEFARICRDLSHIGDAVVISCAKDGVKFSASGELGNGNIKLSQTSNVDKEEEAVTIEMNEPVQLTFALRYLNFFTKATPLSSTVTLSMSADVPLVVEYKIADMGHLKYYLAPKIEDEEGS"}, "source": "paper doi:10.1101/2022.07.21.500940", "about": "(bioRxiv, 2022)", "molecular_target": "T1, GST-tagged SNM1A peptide spanning the PBZ and UBZ motifs (GST-PBZ-UBZ) (human)", "T1 sequence": "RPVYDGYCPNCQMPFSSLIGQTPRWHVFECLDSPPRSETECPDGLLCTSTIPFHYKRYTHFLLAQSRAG", "assay": "pull-down", "note": "Results are given in words; binding and its absence hold for the method and conditions named. Sequences can lack the tags named with a protein.", "data": [{"substance": "Human PCNA (from UniProt P12004 1-261)", "values": [{"measurement": "binding", "result": "no binding (tested: 150 ng)"}]}]}
